Laboratory results reported in article PMC10236072, “Microwave-assisted synthesis of [^52Mn]Mn-porphyrins: Applications in cell and liposome radiolabelling” (Nuclear Medicine and Biology, 2022).

Experiment: Liposome radiolabelling with size exclusion purification
Details: incubated 30 min at 50 °C, G-25 size exclusion, n = 3

[Cl][52Mn][Cl] [Buffered ^52Mn, [^52Mn]MnCl2]
liposome labelling efficiency (% activity eluting with the liposomes) (listed as free ^52Mn): 0.4 ± 0.1% | liposome labelling efficiency (% activity eluting with the liposomes) (listed as unchelated ^52Mn): unable to label
